Measured values taken from PMC11758708, “Natural variation in MdNAC5 contributes to fruit firmness and ripening divergence in apple”.

Experiments:
[1] = target: T1, MdNAC5T M173L (Malus x domestica (Fuji / Cripp's Pink)) (UniProt A0A498K6T8); experiment: EMSA; conditions: binds, weaker than MdNAC5A; EMSA/Gel-Shift Kit (Beyotime) per instructions; pH and temperature not stated; recombinant protein; protein details: His (pET-32a); label: 3' biotin (both strands)
T1 sequence (looked up, limits assumed): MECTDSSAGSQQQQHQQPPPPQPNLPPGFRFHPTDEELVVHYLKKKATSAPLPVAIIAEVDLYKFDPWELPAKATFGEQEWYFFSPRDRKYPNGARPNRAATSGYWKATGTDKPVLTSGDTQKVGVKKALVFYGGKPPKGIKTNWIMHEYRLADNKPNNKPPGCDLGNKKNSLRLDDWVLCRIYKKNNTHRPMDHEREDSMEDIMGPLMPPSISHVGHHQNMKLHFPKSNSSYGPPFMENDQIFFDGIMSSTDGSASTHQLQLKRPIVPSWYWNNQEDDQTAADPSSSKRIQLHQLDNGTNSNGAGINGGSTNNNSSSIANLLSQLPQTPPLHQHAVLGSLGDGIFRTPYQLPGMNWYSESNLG

[2] = target: T2, MdNAC5A (Malus x domestica (Fuji / Cripp's Pink)) (UniProt A0A498K6T8); experiment: EMSA; conditions: EMSA/Gel-Shift Kit (Beyotime) per instructions; pH and temperature not stated; recombinant protein; protein details: His (pET-32a); label: 3' biotin (both strands)
T2 sequence (looked up, limits assumed): T1 sequence (looked up, limits assumed) with L173M

“ACAAATTTTGTAAGTCATGTGATGTGTCACGAATCG (double strand) [MdERF3p1 probe]”: binds more weakly [1]; binds [2].

“CCTGTGACAATATTACATGTGGCATGTCAATTGAGA (double strand) [MdACS1 probe]”: binds more weakly [1].

“AAATAATATCAAAGCCATGTGAACTGAGTTGGTCCA (double strand) [MdERF3p2 probe]”: binds more weakly [1]; binds [2].

Where a chain is given by its changes, count along the chain named. For some assays here: The comparison behind a weaker result is the experiment's own reference, which may not be listed here. Tags and fusion partners may be left off the protein sequences shown. The exact form of at least one protein or probe is not confirmed. At least one verdict was read from the data and is not stated in words by the source.
